Data as given in PubChem BioAssay AID720710 (VTT Finland, 2013)
The deposit covers about 1,380 reagents; below is a random part of them. 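One array per condition without replicates; hydroxyurea arrays received 2 mM for 16 h plus 3 h recovery.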 Reagents against one gene are numbered here. Further read-outs or replicates are left out here.

- Purpose: 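Knock-downs that leave cyclin E-high cells sensitive to replication stress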 (primary screen)
- Cells: human U-2 OS bone cancer cells, parental and a cyclin E (CCNE1) overexpressing line
- Reagent: single siRNA against human genes, 1 µM siRNA in the printed spot mix
- Duration: 67 h
- Conditions: half the arrays: hydroxyurea 2 mM for 16 h, then 3 h recovery; other arrays untreated
- Measured: 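EdU click signal imaged per DAPI-stained nucleus at 67 h; each spot divided by its subgrid median, then z-scored relative to non-targeting control spots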
- Scale: EdU z-score, cyclin E line, hydroxyurea and EdU z-score, parental, hydroxyurea: higher = more DNA synthesis than non-targeting controls

gene	reagent no.	EdU z-score, cyclin E line, hydroxyurea	EdU z-score, parental, hydroxyurea
LOC651921	1	0.0146	0.425
LOC651921	2	0.64	2.23
UBR5	1	-0.0048	-3.37
UBR5	2	0.598	-0.29
RECQL4	1	-0.969	-5.96
RECQL4	2	0.545	1.65
CDC45	1	-0.0371	0.00606
CDC45	2	0.094	1.8
RFC3	1	-3.34	-0.563
RFC3	2	0.235	0.963
SMARCC1	1	-2.31	-4.13
SMARCC1	2	-1.17	-3.17
MPG	1	-2.75	-2.61
MPG	2	1.44	0.289
SOD1	1	-0.17	-2.72
SOD1	2	2.42	0.276
ESPL1	1	-1.34	1.41
ESPL1	2	1.24	1.85
HELZ	1	-0.859	-0.0485
HELZ	2	0.195	0.0954
SFN	1	-0.401	-0.255
SFN	2	0.291	0.359
H4C15	1	1.05	-4.02
H4C15	2	1.43	-1.76
NASP	1	-1.05	-3.03
NASP	2	1.51	-1.11
MAP2K6	1	-1.42	-1.24
MAP2K6	2	-0.771	0.315
DNA2	1	-1.21	-1.19
DNA2	2	0.895	-0.0639
MCM8	1	-1.48	-1.17
MCM8	2	-1.43	1.68
GTPBP4	1	-1.54	0.927
GTPBP4	2	0.769	3.11
MSH2	1	-0.391	-2.25
MSH2	2	0.83	1.71
TP53	1	-1.97	-0.845
TP53	2	-0.819	1.35
KAT7	1	-2.84	-2.72
KAT7	2	0	0.84
LOC729505	1	1.11	0.161
LOC729505	2	1.75	0.814
ATRIP	1	-1.89	0.448
ATRIP	2	1.88	3.06
H2BC13	1	-1.66	-1.25
H2BC13	2	-1.03	1.57
MSH3	1	-2.32	-0.265
MSH3	2	0.201	1.24
ZNF408	1	-0.304	-2.19
ZNF408	2	2.71	2.55
BCCIP	1	0.2	0.424
BCCIP	2	0.711	0.488
PMS1	1	-1.09	-4.26
PMS1	2	-0.364	0.681
KAT6B	1	-0.753	0.226
KAT6B	2	0.0947	0.248
SETD4	1	-0.766	1.03
SETD4	2	0.0291	1.72

5 consecutive records from above:
gene	reagent no.	EdU z-score, cyclin E line, hydroxyurea	EdU z-score, parental, hydroxyurea
MCM8	1	-1.48	-1.17
MCM8	2	-1.43	1.68
GTPBP4	1	-1.54	0.927
GTPBP4	2	0.769	3.11
MSH2	1	-0.391	-2.25
